In patent US11912716B2 (priority 2018, dated 2024):

Tested on: morphine-dependent animals
Experiment: naloxone-precipitated morphine-withdrawal jumping (Example 10)
Assay type: in vivo, Kunming mice
Conditions: methadone 20 mg/kg intragastric, 1 hour before naloxone

Compound: CCC(=O)C(CC(C)N(C)C)(c1ccccc1)c1ccccc1 (stereo not shown) [methadone, reference compound]
- % Inhibition of morphine-withdrawal jumping: 46.1 ± 5.2%
